# Measured values from the supplement of paper PMC4604168 (melanoma cell lines).
# This is one part of the list. Single values are uncertain, as repeats are few or missing.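 Imaging used 1,536-well plates; nuclei positive for cleaved PARP by antibody were divided by total DNA-stained nuclei to yield the apoptosis fraction. Doses for screening kept most cells viable, and cell lines differ markedly in resting and induced cleaved-PARP levels.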
# What was measured:
# Assay in all cases: cleaved PARP positive nuclei fraction relative to DMSO control; melanoma cells; higher = more apoptosis
# Conditions in all cases: library dose: low library concentration; 72 h
# MZ2-MEL = test system: MZ2-MEL
# MeWo = test system: MeWo
# RPMI7951 = test system: RPMI7951
# RVH-421 = test system: RVH-421
# SkMel28 = test system: SkMel28
# SkMel2 = test system: SkMel2
# SkMel30 = test system: SkMel30
# UACC62 = test system: UACC62
# WM115 = test system: WM115
# WM1716 = test system: WM1716
# WM1745 = test system: WM1745
# WM3526 = test system: WM3526
# WM3619 = test system: WM3619
# WM451Lu = test system: WM451Lu
SMILES,cleaved PARP positive nuclei fraction (MZ2-MEL),cleaved PARP positive nuclei fraction (MeWo),cleaved PARP positive nuclei fraction (RPMI7951),cleaved PARP positive nuclei fraction (RVH-421),cleaved PARP positive nuclei fraction (SkMel28),cleaved PARP positive nuclei fraction (SkMel2),cleaved PARP positive nuclei fraction (SkMel30),cleaved PARP positive nuclei fraction (UACC62),cleaved PARP positive nuclei fraction (WM115),cleaved PARP positive nuclei fraction (WM1716),cleaved PARP positive nuclei fraction (WM1745),cleaved PARP positive nuclei fraction (WM3526),cleaved PARP positive nuclei fraction (WM3619),cleaved PARP positive nuclei fraction (WM451Lu)
"C[C@@H](N)c1ccc(C(=O)Nc2ccnc3[nH]ccc23)cc1 + CS(=O)(=O)c1ccc(C(=O)Nc2ccc(Cl)c(-c3ccccn3)c2)c(Cl)c1 [vismodegib] (first compound 0.4 µM, partner dose 1 µM)",230%,1360%,97.1%,300%,213%,245%,91.6%,215%,161%,3190%,123%,70.9%,72.8%,49.9%
"COc1ccc(C2=N[C@@H](c3ccc(Cl)cc3)[C@@H](c3ccc(Cl)cc3)N2C(=O)N2CCNC(=O)C2)c(OC(C)C)c1 [Nutlin-3] + C=CCNC1=C2C[C@@H](C)C[C@H](OC)[C@H](O)[C@@H](C)/C=C(\C)[C@H](OC(N)=O)[C@@H](OC)/C=C\C=C(/C)C(=O)NC(=CC1=O)C2=O [Tanespimycin] (first compound 0.1 µM, partner dose 0.002 µM)",60.8%,104%,113%,38%,80.3%,56.9%,49.5%,72.2%,95.3%,15.5%,87.1%,37.5%,106%,128%
"C[C@]1(O)C[C@@H](c2nc(-c3ccc4ccc(-c5ccccc5)nc4c3)c3c(N)nccn32)C1 + Cn1nnc2c(C(N)=O)ncn2c1=O [temozolomide] (first compound 0.4 µM, partner dose 2 µM)",42.1%,165%,79%,76.9%,95.7%,41.7%,63.5%,173%,27.4%,188%,107%,92.4%,80.7%,245%
"CCN(CC)CCNC(=O)c1c(C)[nH]c(/C=C2\C(=O)Nc3ccc(F)cc32)c1C [sunitinib] + CC(C)C[C@H](NC(=O)[C@H](Cc1ccccc1)NC(=O)c1cnccn1)B(O)O [Bortezomib] (first compound 0.4 µM, partner dose 0.001 µM)",109%,82.7%,131%,160%,71%,67.8%,72%,73%,67.5%,97.6%,98%,50.5%,183%,119%
"CN(c1ncccc1CNc1nc(Nc2ccc3c(c2)CC(=O)N3)ncc1C(F)(F)F)S(C)(=O)=O + C=CCNC1=C2C[C@@H](C)C[C@H](OC)[C@H](O)[C@@H](C)/C=C(\C)[C@H](OC(N)=O)[C@@H](OC)/C=C\C=C(/C)C(=O)NC(=CC1=O)C2=O [Tanespimycin] (first compound 0.08 µM, partner dose 0.002 µM)",55.9%,93.7%,168%,122%,123%,147%,22.5%,113%,193%,81%,110%,36.3%,94.4%,104%
"Cn1sc(=O)n(Cc2ccccc2)c1=O + Nc1ncn([C@H]2C[C@H](O)[C@@H](CO)O2)c(=O)n1 [decitabine] (first compound 0.4 µM, partner dose 0.1 µM)",135%,59.2%,115%,176%,162%,85.4%,74.6%,109%,218%,50.1%,104%,73.5%,106%,123%
"CC(=O)O[C@@]12CO[C@@H]1C[C@H](O)[C@@]1(C)C(=O)[C@H](O)C3=C(C)[C@@H](OC(=O)[C@H](O)[C@@H](NC(=O)OC(C)(C)C)c4ccccc4)C[C@@](O)([C@@H](OC(=O)c4ccccc4)[C@H]21)C3(C)C [Docetaxel] + CO[C@H]1C[C@@H]2CC[C@@H](C)[C@@](O)(O2)C(=O)C(=O)N2CCCC[C@H]2C(=O)O[C@H]([C@H](C)C[C@@H]2CC[C@@H](OCCO)[C@H](OC)C2)CC(=O)[C@H](C)/C=C(\C)[C@@H](O)[C@@H](OC)C(=O)[C@H](C)C[C@H](C)/C=C/C=C/C=C/1C [everolimus] (first compound 0.0001 µM, partner dose 0.02 µM)",648%,602%,229%,130%,2180%,–,729%,1570%,729%,591%,181%,300%,129%,185%
"NC(=O)c1ccc(N(C(N)=O)c2c(F)cccc2F)nc1-c1ccc(F)cc1F + O=C(O)c1ccc2c(c1)nc(Nc1cccc(Cl)c1)c1ccncc12 [CX4945] (first compound 0.4 µM, partner dose 0.4 µM)",71.3%,176%,52.2%,217%,139%,58.7%,68.3%,68%,163%,225%,41.6%,132%,115%,79.6%
"Cn1sc(=O)n(Cc2ccccc2)c1=O + CN1CCN(c2ccc3nc(-c4c(N)c5c(F)cccc5[nH]c4=O)[nH]c3c2)CC1 [Dovitinib] (first compound 0.4 µM, partner dose 0.1 µM)",157%,114%,113%,173%,247%,80.4%,58.9%,115%,126%,32.5%,83.4%,226%,75.8%,100%
"Cn1cnc2c(F)c(Nc3ccc(Br)cc3Cl)c(C(=O)NOCCO)cc21 [selumetinib] + CNC(=O)c1cc(Oc2ccc(NC(=O)Nc3ccc(Cl)c(C(F)(F)F)c3)cc2)ccn1 [sorafenib] (first compound 0.015 µM, partner dose 0.4 µM)",60.5%,143%,170%,75.8%,51%,118%,81.2%,247%,141%,107%,92.9%,25.3%,96.9%,46.5%
"CCCCCCCCc1ccc(CCC(N)(CO)CO)cc1 [fingolimod] + CS(=O)(=O)CCNCc1ccc(-c2ccc3ncnc(Nc4ccc(OCc5cccc(F)c5)c(Cl)c4)c3c2)o1 [lapatinib] (first compound 2 µM, partner dose 0.8 µM)",128%,106%,95.3%,131%,95.7%,30%,21.3%,80.6%,96.5%,74.6%,112%,46.4%,89.4%,125%
"Cn1sc(=O)n(Cc2ccccc2)c1=O + O=C(O)c1ccc2c(c1)nc(Nc1cccc(Cl)c1)c1ccncc12 [CX4945] (first compound 0.4 µM, partner dose 0.4 µM)",182%,143%,165%,164%,126%,36.5%,70.1%,121%,137%,126%,103%,76%,125%,65.3%
"CC(=O)O[C@@]12CO[C@@H]1C[C@H](O)[C@@]1(C)C(=O)[C@H](O)C3=C(C)[C@@H](OC(=O)[C@H](O)[C@@H](NC(=O)OC(C)(C)C)c4ccccc4)C[C@@](O)([C@@H](OC(=O)c4ccccc4)[C@H]21)C3(C)C [Docetaxel] + OCc1c[nH]c2ccccc12 [Indole-3-carbinol] (first compound 0.0001 µM, partner dose 0.8 µM)",345%,817%,288%,162%,240%,668%,250%,600%,305%,559%,170%,134%,136%,161%
"CC1(C)CCC(c2ccc(Cl)cc2)=C(CN2CCN(c3ccc(C(=O)NS(=O)(=O)c4ccc(N[C@H](CCN5CCOCC5)CSc5ccccc5)c(S(=O)(=O)C(F)(F)F)c4)cc3)CC2)C1 + Cn1c(=O)n(-c2ccc(C(C)(C)C#N)cc2)c2c3cc(-c4cnc5ccccc5c4)ccc3ncc21 [NVP-BEZ235] (first compound 0.4 µM, partner dose 0.004 µM)",258%,483%,255%,107%,83%,473%,133%,146%,342%,86.7%,852%,50.2%,141%,111%
"Cn1sc(=O)n(Cc2ccccc2)c1=O + NC(=O)c1ccc(N(C(N)=O)c2c(F)cccc2F)nc1-c1ccc(F)cc1F [VX702] (first compound 0.4 µM, partner dose 0.4 µM)",75%,216%,53.9%,113%,77.4%,3050%,57.4%,74.1%,167%,43.4%,104%,268%,82.5%,50.6%
"Cn1sc(=O)n(Cc2ccccc2)c1=O + Cn1c(Nc2ccc(C(F)(F)F)cc2)nc2cc(Oc3ccnc(-c4ncc(C(F)(F)F)[nH]4)c3)ccc21 [CHIR265] (first compound 0.4 µM, partner dose 0.08 µM)",164%,41.3%,96.6%,614%,101%,97.8%,69%,417%,489%,77.6%,128%,129%,152%,45.6%
"CC1(C)CCC(c2ccc(Cl)cc2)=C(CN2CCN(c3ccc(C(=O)NS(=O)(=O)c4ccc(N[C@H](CCN5CCOCC5)CSc5ccccc5)c(S(=O)(=O)C(F)(F)F)c4)cc3)CC2)C1 + CC(C)C[C@H](NC(=O)[C@H](Cc1ccccc1)NC(=O)c1cnccn1)B(O)O [Bortezomib] (first compound 0.4 µM, partner dose 0.001 µM)",133%,1400%,387%,180%,43.8%,113%,334%,130%,371%,1660%,2000%,146%,922%,153%
"CC1(C)CCC(c2ccc(Cl)cc2)=C(CN2CCN(c3ccc(C(=O)NS(=O)(=O)c4ccc(N[C@H](CCN5CCOCC5)CSc5ccccc5)c(S(=O)(=O)C(F)(F)F)c4)cc3)CC2)C1 + O=C(O)c1ccc2c(c1)nc(Nc1cccc(Cl)c1)c1ccncc12 [CX4945] (first compound 0.4 µM, partner dose 0.4 µM)",405%,185%,245%,268%,59%,140%,256%,44.8%,711%,898%,1130%,60.7%,114%,273%
"Cn1sc(=O)n(Cc2ccccc2)c1=O + CC(=O)c1c(C)c2cnc(Nc3ccc(N4CCNCC4)cn3)nc2n(C2CCCC2)c1=O [palbociclib] (first compound 0.4 µM, partner dose 0.04 µM)",109%,33.3%,113%,54.9%,67.8%,75.7%,113%,138%,58.4%,152%,84%,131%,200%,220%

# Rewritten bar-delimited: entries from further up.
SMILES | cleaved PARP positive nuclei fraction (MZ2-MEL) | cleaved PARP positive nuclei fraction (MeWo) | cleaved PARP positive nuclei fraction (RPMI7951) | cleaved PARP positive nuclei fraction (RVH-421) | cleaved PARP positive nuclei fraction (SkMel28) | cleaved PARP positive nuclei fraction (SkMel2) | cleaved PARP positive nuclei fraction (SkMel30) | cleaved PARP positive nuclei fraction (UACC62) | cleaved PARP positive nuclei fraction (WM115) | cleaved PARP positive nuclei fraction (WM1716) | cleaved PARP positive nuclei fraction (WM1745) | cleaved PARP positive nuclei fraction (WM3526) | cleaved PARP positive nuclei fraction (WM3619) | cleaved PARP positive nuclei fraction (WM451Lu)
C[C@@H](N)c1ccc(C(=O)Nc2ccnc3[nH]ccc23)cc1 + CS(=O)(=O)c1ccc(C(=O)Nc2ccc(Cl)c(-c3ccccn3)c2)c(Cl)c1 [vismodegib] (first compound 0.4 µM, partner dose 1 µM) | 230% | 1360% | 97.1% | 300% | 213% | 245% | 91.6% | 215% | 161% | 3190% | 123% | 70.9% | 72.8% | 49.9%
NC(=O)c1ccc(N(C(N)=O)c2c(F)cccc2F)nc1-c1ccc(F)cc1F + O=C(O)c1ccc2c(c1)nc(Nc1cccc(Cl)c1)c1ccncc12 [CX4945] (first compound 0.4 µM, partner dose 0.4 µM) | 71.3% | 176% | 52.2% | 217% | 139% | 58.7% | 68.3% | 68% | 163% | 225% | 41.6% | 132% | 115% | 79.6%
CC1(C)CCC(c2ccc(Cl)cc2)=C(CN2CCN(c3ccc(C(=O)NS(=O)(=O)c4ccc(N[C@H](CCN5CCOCC5)CSc5ccccc5)c(S(=O)(=O)C(F)(F)F)c4)cc3)CC2)C1 + O=C(O)c1ccc2c(c1)nc(Nc1cccc(Cl)c1)c1ccncc12 [CX4945] (first compound 0.4 µM, partner dose 0.4 µM) | 405% | 185% | 245% | 268% | 59% | 140% | 256% | 44.8% | 711% | 898% | 1130% | 60.7% | 114% | 273%
